pIC50: −log10 of the molar value. Where two headings read alike, the source gives them in different places. Not every detail of the peptide structures is certain; ends, links or a residue may be inferred. No end group written: not given here.
Tests used:
[1] = tested on: human anti-Galα(1,3)Gal IgG antibodies; test: Elisa: inhibition of anti-Galα(1,3)Gal IgG binding to Galα(1,3)Gal-BSA; conditions: for Inhibition of anti-Galα(1,3)Gal IgG binding to Galα(1,3)Gal-BSA (in words): varying concentrations of inhibitor
Procedure: 50 μl of either purified anti-Galα(1,3)Ga IgG or biotinylated IB4 lectin was added to the wells, incubated for 45 minutes at 22° C., washed with PBS-0.05% Tween 20, and 50 μl of the relevant IIRP conjugate added and incubated for a further 45 minutes before washing and the addition of 50 μl of substrate (2,2′ Azino-di-B-ethylbenzthiozoline (Zymed, San Francisco, Calif.)) and reading the OD405.
An Elisa was established to calculate the relative “affinity” of the Gal pep 1 (SEQ ID No. 1) for the IB4 lectin and for human anti-Galα(1,3)Gal antibodies, and to compare these with the affinities for α-galactosyl sugars.
Peptides or carbohydrates were examined cytofluorographically for their ability to inhibit antibody/lectin binding to the cell surface using a FACSCAN flow cytometer (Becton Dickinson, USA)[20]: 25 μl of inhibitor was mixed with 25 μl of antibody of lectin and incubated at 22° C. for 3 hours (peptides) or at 4° C. for 16 hours (carbohydrates)[14], prior to addition of appropriate targets. An Elisa assay was used to calculate the relative affinities of the sugars or the peptides for both IB4 lectin and antibodies, and were defined as the molar concentration of inhibitor giving 50% inhibition of the maximal binding of lectin or antibody.

[2] = tested on: pig RBC; test: Inhibition of IB4 induced hemagglutination of pig RBC; assay type: cell-based; conditions: IB4 1 μg/ml, peptide 5 mM to 0.156 mM
[3] = tested on: pig RBC; test: Inhibition of NHS hemagglutination of pig RBC; assay type: cell-based; conditions: NHS 1/32, peptide 5 mM
[4] = tested on: human natural antibodies; test: Cytofluorographic inhibition of binding of human natural antibodies (NHS) to PIEC; assay type: cell-based
[5] = tested on: anti-CD48 monoclonal antibody; test: Specificity control: binding of anti-CD48 monoclonal antibody to human PBL; assay type: cell-based
[6] = tested on: anti-MUC1 mAb, BC1; test: Inhibition of anti-MUC1 mAb binding to MUC1+3T3 (MOR5) cells; assay type: cell-based; conditions: down to a peptide concentration of 0.156 mM
[7] = tested on: P815 cells; test: Specificity control: immunised mice challenged with P815; assay type: in vivo
[8] = tested on: established MUC1^+ tumours; test: Immunisation of mice carrying established MUC1+ tumours; assay type: in vivo; conditions: then immunised
[9] = tested on: MUC1; test: Antibody response of immunised mice; assay type: in vivo
[10] = tested on: peptide pulsed P815 target cells; test: CTL epitope mapping on P815 targets pulsed with overlapping MUC1 VNTR 9-mers; assay type: in vivo; conditions: DBA/2 mice, 9-mers spanning the 20 amino acid VNTR
[11] = Table 1, anti-Galα(1,3)Gal IgG 87 μg/ml, concentration giving 50% inhibition of binding, read-out: I50 anti-Galα(1,3)Gal IgG
[12] = Table 3, anti-Galα(1,3)Gal antibody (IgG) 87 μgs/ml, read-out: I50 Anti-Galα(1,3)Gal

Sequence | Inhibition of anti-Galα(1,3)Gal IgG binding to Galα(1,3)Gal-BSA (in words) ([1]; Elisa) | pIC50 [1, 11] | pIC50 [1, 12] | Inhibition of IB4 induced hemagglutination [2] | Blocking of hemagglutination using NHS [3] | Inhibition of binding of human natural antibodies to PIEC ([4]; peptide 20 mM, NHS 1/50) | Inhibition of binding of human natural antibodies to PIEC ([4]; peptide at concentrations lower than 20 mM) | Effect on binding of anti-CD48 monoclonal antibody to human PBL [5] | Inhibition of binding of BC1 to MUC1+3T3 cells [6] | Effect on growth of P815 (MUC1 negative) tumour [7] | Effect on established MUC1+ tumours [8] | Antibody response after immunisation [9] | MUC1 epitopes recognised by CTLs of immunised mice [10] | Inhibition of binding of anti-Galα(1,3)Gal IgG to Galα(1,3)Gal-BSA ([1]; Elisa, peptides at 5 mM (FIG. 8b))
DAHWESWL [Gal pep 1] | inhibited | 2.00 | 2.00 | complete inhibition | partial blocking | inhibition occurred | But not when used at lower concentrations | had no effect | inhibited | normal growth of P815 cells | rapid reversal of tumour growth | produced anti-DAHWESWL and anti-MUC1 antibodies | only the peptides containing the sequence SAPDTRPAP (SEQ ID No. 9) or APDTRPAPG (SEQ ID No. 10) could lead to target cell lysis | –
YTFDQKIVEWDSRKSKC [CD48 pep 1] | Neither the CD48 pep 1 nor glucose had any effect | < 1.70 | < 1.70 | no inhibition | but not | No inhibition | – | – | – | – | – | – | – | had no effect

— US6344203B1, “Mimicking peptides in cancer therapy” (The Austin Research Institute, priority 1995, dated 2002)
